This is one part of the list.
How the values were obtained:
Test in all cases: glycan array binding signal (z-score within array); higher = stronger binding
Settings in all cases: glycan notation: IUPAC condensed, linker removed
[1] = biological target: Neu5Ac(a2-6)Gal(b1-4)GlcNAc(b1-2)Man(a1-3)[GlcNAc(b1-2)Man(a1-6)]Man(b1-4)GlcNAc(b1-4)GlcNAc
In short: (§1)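 Glycan array data came from 3228 arrays in the Consortium for Functional Glycomics database, and only arrays with an available protein sequence were kept. Glycan names were put into IUPAC-condensed notation, and columns mapping to the same glycan were averaged. The binding signal is a within-array Z-score, averaged across arrays of one protein sequence run at different concentrations or buffers and across linkers. A negative Z-score can be read as non-binding.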

[2] = biological target: Neu5Ac(a2-6)Gal(b1-4)GlcNAc(b1-2)Man(a1-3)[GlcNAc(b1-2)Man(b1-4)GlcNAc(b1-2)Man(a1-6)]Man(b1-4)GlcNAc(b1-4)GlcNAc
In short: as §1

[3] = biological target: Neu5Ac(a2-6)Gal(b1-4)GlcNAc(b1-2)Man(a1-3)[Man(a1-6)]Man(b1-4)GlcNAc(b1-4)GlcNAc
In short: as §1

[4] = biological target: Neu5Ac(a2-6)Gal(b1-4)GlcNAc(b1-2)Man(a1-3)[Neu5Ac(a2-6)Gal(b1-4)GlcNAc(b1-2)Man(a1-6)]Man(b1-4)GlcNAc(b1-4)GlcNAc
In short: as §1

[5] = biological target: Neu5Ac(a2-6)Gal(b1-4)GlcNAc(b1-2)Man(a1-6)Man(b1-4)GlcNAc(b1-4)GlcNAc
In short: as §1

[6] = biological target: Neu5Ac(a2-6)Gal(b1-4)GlcNAc(b1-2)Man(a1-6)[Gal(b1-4)GlcNAc(b1-2)Man(a1-3)]Man(b1-4)GlcNAc(b1-4)GlcNAc
In short: as §1

[7] = biological target: Neu5Ac(a2-6)Gal(b1-4)GlcNAc(b1-2)Man(a1-6)[GlcNAc(b1-2)Man(a1-3)]Man(b1-4)GlcNAc(b1-4)GlcNAc
In short: as §1

[8] = biological target: Neu5Ac(a2-6)Gal(b1-4)GlcNAc(b1-2)Man(a1-6)[Man(a1-3)]Man(b1-4)GlcNAc(b1-4)GlcNAc
In short: as §1

[9] = biological target: Neu5Ac(a2-6)Gal(b1-4)GlcNAc(b1-3)Gal(b1-3)GlcNAc
In short: as §1

[10] = biological target: Neu5Ac(a2-6)Gal(b1-4)GlcNAc(b1-3)Gal(b1-4)GlcNAc
In short: as §1

[11] = biological target: Neu5Ac(a2-6)Gal(b1-4)GlcNAc(b1-3)Gal(b1-4)GlcNAc(b1-3)Gal(b1-4)GlcNAc
In short: as §1

[12] = biological target: Neu5Ac(a2-6)Gal(b1-4)GlcNAc(b1-3)Gal(b1-4)[Fuc(a1-3)]GlcNAc(b1-3)Gal(b1-4)[Fuc(a1-3)]GlcNAc
In short: as §1

[13] = biological target: Neu5Ac(a2-6)Gal(b1-4)GlcNAc(b1-3)GalNAc
In short: as §1

[14] = biological target: Neu5Ac(a2-6)Gal(b1-4)GlcNAc6S
In short: as §1

Neu5Ac(a2-6)GalNAc = biological target: Neu5Ac(a2-6)GalNAc
In short: as §1

[15] = biological target: Neu5Ac(a2-6)GalNAc(b1-4)GlcNAc
In short: as §1

[16] = biological target: Neu5Ac(a2-6)GlcNAc(b1-4)GlcNAc
In short: as §1

[17] = biological target: Neu5Ac(a2-6)GlcNAc(b1-4)GlcNAc(b1-4)GlcNAc
In short: as §1

Neu5Ac(a2-8)Neu5Ac = biological target: Neu5Ac(a2-8)Neu5Ac
In short: as §1

[18] = biological target: Neu5Ac(a2-8)Neu5Ac(a2-3)Gal(b1-3)GalNAc(b1-4)[Neu5Ac(a2-8)Neu5Ac(a2-3)]Gal(b1-4)Glc
In short: as §1

[19] = biological target: Neu5Ac(a2-8)Neu5Ac(a2-3)Gal(b1-4)Glc
In short: as §1

[20] = biological target: Neu5Ac(a2-8)Neu5Ac(a2-3)[Gal(b1-3)GalNAc(b1-4)]Gal(b1-4)Glc
In short: as §1

[21] = biological target: Neu5Ac(a2-8)Neu5Ac(a2-3)[GalNAc(b1-4)]Gal(b1-4)Glc
In short: as §1

[22] = biological target: Neu5Ac(a2-8)Neu5Ac(a2-8)Neu5Ac
In short: as §1

[23] = biological target: Neu5Ac(a2-8)Neu5Ac(a2-8)Neu5Ac(a2-3)Gal(b1-4)Glc
In short: as §1

[24] = biological target: Neu5Ac(a2-8)Neu5Ac(a2-8)Neu5Ac(a2-3)[GalNAc(b1-4)]Gal(b1-4)Glc
In short: as §1

[25] = biological target: Neu5Ac(a2-8)Neu5Ac(a2-8)Neu5Ac(a2-8)Neu5Ac(a2-3)[GalNAc(b1-4)]Gal(b1-4)Glc
In short: as §1

[26] = biological target: Neu5Ac(b2-6)Gal(b1-4)GlcNAc
In short: as §1

Neu5Ac(b2-6)GalNAc = biological target: Neu5Ac(b2-6)GalNAc
In short: as §1

[27] = biological target: Neu5Ac9Ac(a2-3)Gal(b1-3)GlcNAc
In short: as §1

[28] = biological target: Neu5Ac9Ac(a2-3)Gal(b1-4)GlcNAc
In short: as §1

[29] = biological target: Neu5Ac9Ac(a2-6)Gal(b1-4)GlcNAc
In short: as §1

[30] = biological target: Neu5Gc(a2-3)Gal(b1-3)GlcNAc
In short: as §1

[31] = biological target: Neu5Gc(a2-3)Gal(b1-3)[Fuc(a1-4)]GlcNAc
In short: as §1

Neu5Gc(a2-3)Gal(b1-4)Glc = biological target: Neu5Gc(a2-3)Gal(b1-4)Glc
In short: as §1

[32] = biological target: Neu5Gc(a2-3)Gal(b1-4)GlcNAc
In short: as §1

[33] = biological target: Neu5Gc(a2-3)Gal(b1-4)[Fuc(a1-3)]GlcNAc
In short: as §1

[34] = biological target: Neu5Gc(a2-6)Gal(b1-4)GlcNAc
In short: as §1

Neu5Gc(a2-6)GalNAc = biological target: Neu5Gc(a2-6)GalNAc
In short: as §1

[35] = biological target: Neu5Gc(b2-6)Gal(b1-4)GlcNAc
In short: as §1

B1: RetS (Pseudomonas aeruginosa), Q9HUV7 (protein)
chain: MVRLRIAIGLLVSFLLLLLGPMSPAVADDAGVSSVPLQTTATTPSANQNWRLLRDESAQLRIADVLQRKEQFRPLAKRSFIFPASPQAVWLQVQLPAQKVPSWLWIFAPRVQYLDYYLVQDGQLVRDQHTGESRPFQERPLPSRSYLFSLPVDGKPMTLYVRMTSNHPLMAWFDQIDEAGLVGLEKPAYAFGMLLGGMLLLLMYNLIRFAYSRSASSLWLAAVHAALAVCAAANLGLVAFWLPGLKFNQSLTADLGALGAAVSLLWFACSFFRGTAESRLNRLLQGEALLILAVGAIIAFTQQLWFSWLIYLLVILSSLSVPLIAAWHWYRGYQPARLIVAGMIVFNAGFMVFLPVLFGTKQLDPGWLVLGVFSFATLAGLVLSVSLTERQRLIQQLNLQQRTSEAAHTAELQTKAEFLAKISHEIRTPMNGVLGMTELLLGTPLSAKQRDYVQTIHSAGNELLTLINEILDISKLESGQIELDEVQFDLNALIEDCLDIFRVKAEQQRIELISFTQPQVPRVIGGDPTRLRQVVLSLLDNAFKQTEEGEILLVVALDDQGETPRLRIAVQDSGHPFDAKEREALLTAELHSGDFLSASKLGSHLGLIIARQLVRLMGGEFGIQSGSSQGTTLSLTLPLDPQQLENPTADLDGPLQGARLLVVDDNETCRKVLVQQCSGWGLNVSAVSSGKEALAQLRTKAHLREYFDVVLLDQDMPGMTGMQLAAKIKEDPNLNHDILLIMLTGISNAPSKIIARNAGIKRILAKPVAGYTLKATLADELAQRGVSGVTNYLQPAKEAQAPSLPSDFRILVAEDNSISTKVIRGMLNKLNLQPDTASNGQEALSAMKATQYDLVLMDCEMPVLDGFSATEQLRAWEAHEQRPHTPVVALTAHILSEHKERARLVGMDGHMAKPVELSQLRELIAYWVGERDRRRQGDALPS
[1]
  glycan array binding signal (z-score): -0.625
[2]
  glycan array binding signal (z-score): -0.37
[3]
  glycan array binding signal (z-score): -0.125
[4]
  glycan array binding signal (z-score): 1.4
[5]
  glycan array binding signal (z-score): 0.077
[6]
  glycan array binding signal (z-score): 0.407
[7]
  glycan array binding signal (z-score): 1.56
[8]
  glycan array binding signal (z-score): 0.82
[9]
  glycan array binding signal (z-score): -1.11
[10]
  glycan array binding signal (z-score): 0.395
[11]
  glycan array binding signal (z-score): 0.156
[12]
  glycan array binding signal (z-score): 0.616
[13]
  glycan array binding signal (z-score): -0.906
[14]
  glycan array binding signal (z-score): 0.369
Neu5Ac(a2-6)GalNAc
  glycan array binding signal (z-score): -1.85
[15]
  glycan array binding signal (z-score): -0.76
[16]
  glycan array binding signal (z-score): -0.148
[17]
  glycan array binding signal (z-score): -0.596
Neu5Ac(a2-8)Neu5Ac
  glycan array binding signal (z-score): 0.075
[18]
  glycan array binding signal (z-score): -0.48
[19]
  glycan array binding signal (z-score): -1.21
[20]
  glycan array binding signal (z-score): 0.044
[21]
  glycan array binding signal (z-score): 0.67
[22]
  glycan array binding signal (z-score): -0.444
[23]
  glycan array binding signal (z-score): 0.263
[24]
  glycan array binding signal (z-score): 0.181
[25]
  glycan array binding signal (z-score): 1.03
[26]
  glycan array binding signal (z-score): 0.542
Neu5Ac(b2-6)GalNAc
  glycan array binding signal (z-score): 0.789
[27]
  glycan array binding signal (z-score): -0.749
[28]
  glycan array binding signal (z-score): -0.425
[29]
  glycan array binding signal (z-score): -0.605
[30]
  glycan array binding signal (z-score): -1.31
[31]
  glycan array binding signal (z-score): 1.34
Neu5Gc(a2-3)Gal(b1-4)Glc
  glycan array binding signal (z-score): 2.06
[32]
  glycan array binding signal (z-score): -0.459
[33]
  glycan array binding signal (z-score): 0.919
[34]
  glycan array binding signal (z-score): -0.427
Neu5Gc(a2-6)GalNAc
  glycan array binding signal (z-score): -0.622
[35]
  glycan array binding signal (z-score): -0.212
